Patent US20150064174A1 (BRIGHAM AND WOMEN S HOSPITAL, published 2015)
Results are given in words; binding and its absence hold for the method and conditions named. Some binding calls cover weakened binding; strength is not graded here.

By UniProt entry, the sequences of proteins in these tests, tags left out. Residues count along the entry.
UniProt P03200, residues 1-860: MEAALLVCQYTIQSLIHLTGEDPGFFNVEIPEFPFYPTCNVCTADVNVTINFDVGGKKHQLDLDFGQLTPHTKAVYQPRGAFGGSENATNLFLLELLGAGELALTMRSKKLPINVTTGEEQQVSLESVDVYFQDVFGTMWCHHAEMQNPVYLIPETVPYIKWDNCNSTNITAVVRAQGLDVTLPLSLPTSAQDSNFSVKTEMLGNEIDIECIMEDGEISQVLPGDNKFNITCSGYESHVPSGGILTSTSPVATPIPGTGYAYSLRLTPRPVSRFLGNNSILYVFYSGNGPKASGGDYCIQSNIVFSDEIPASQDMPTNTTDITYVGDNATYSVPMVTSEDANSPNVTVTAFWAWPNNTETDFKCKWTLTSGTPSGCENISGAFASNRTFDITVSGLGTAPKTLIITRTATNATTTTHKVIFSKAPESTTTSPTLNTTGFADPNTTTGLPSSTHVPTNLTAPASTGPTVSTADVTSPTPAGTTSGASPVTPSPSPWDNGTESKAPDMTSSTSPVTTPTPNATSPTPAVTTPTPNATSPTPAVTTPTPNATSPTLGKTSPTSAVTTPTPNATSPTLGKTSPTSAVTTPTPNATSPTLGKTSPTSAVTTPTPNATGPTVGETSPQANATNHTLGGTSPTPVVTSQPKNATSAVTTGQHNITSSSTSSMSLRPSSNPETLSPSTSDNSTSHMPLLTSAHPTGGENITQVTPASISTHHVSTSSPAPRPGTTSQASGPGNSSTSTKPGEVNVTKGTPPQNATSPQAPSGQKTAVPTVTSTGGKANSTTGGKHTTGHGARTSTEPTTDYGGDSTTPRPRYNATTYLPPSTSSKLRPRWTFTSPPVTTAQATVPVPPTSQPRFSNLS

What was measured:
[1] = molecular target: Epstein-Barr virus (EBV)-encoded glycoprotein 350 (gp350) (Epstein-Barr virus) (UniProt P03200); assay: ELISA, plate-coated gp350 (FIG. 6)
[2] = molecular target: Epstein-Barr virus (EBV)-encoded glycoprotein 350 (gp350) (Epstein-Barr virus) (UniProt P03200); assay: immunoassay with recombinant host cell supernatants (FIG. 9)
[3] = molecular target: Epstein-Barr virus (EBV)-encoded glycoprotein 350 (gp350) (Epstein-Barr virus) (UniProt P03200); assay: ELISA, plate-coated purified gp350, HEK293T supernatant, anti-human IgG-HRP

Measured: binding

B1: recombinant humanized (chimeric) 72A1 antibody, heavy chain 1 and lambda light chain (Vh1L) (antibody, human IgG1, V domains shown)
VH: EVQLQQSGPELVKPGTSMKISCKASGSSFTDYTMNWMKQSHGKNLEWIGLINPYNGGTRYNQKFKGKATLTLDKSSSTAYMEVLSLTSEDSAVYYCAGGLRRVNWFAYWGQGTLVSVSA
VL: QAVLTQESALTTSPGETVTLTCRSSTGAVTTSNYANWVQEKPDHLFTGLIGGTNNRVPGVPARFSGSLIGDKAALTITGAQTEDEAIYFCVLWHSNHWVFGGGTKLTVL
binds: all assays above
